PubChem BioAssay AID743458 | Peter MacCallum Cancer Centre – 2014

Aim: 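Find knock-downs that make vorinostat-resistant colon cancer cells sensitive again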 (follow-up of hits)
Cells: human HCT116-VR colon cancer cells made resistant to vorinostat
Knock-down reagent: single siRNA or pool against human genes, 25 nM per single siRNA
Duration: about 72 h after transfection, including 24 h of drug
Challenge: vorinostat, 2.5 µM final, for 24 h
Measurement: 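Cell viability by fluorescence and apoptosis by caspase 3/7 luminescence under vorinostat, background-corrected, averaged across two plate copies and given as fold change versus mock transfection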
Reading the numbers: viability relative to mock: higher = more living cells than mock; caspase activity relative to mock: higher = more apoptosis than mock
Active means: 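Active means a reduced-viability or caspase-activation class, anything else inactive; classes could only be given to wells that looked healthy when left untreated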
The whole screen tested about 1,800 reagents; shown is a random part of them. 732 of them (41%) were called active. 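Calls are per siRNA reagent; a gene was deemed confirmed only if most of its four siRNAs scored.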 A number with no mark means an inactive call. The numbers tell different reagents against one gene apart. Reagent sequences are not shown.

gene knocked down | reagent no. | viability relative to mock | caspase activity relative to mock | viability hit class | caspase hit class
KRTAP27-1 | 1 | 0.9 | 1.62 | no change | no change
KRTAP27-1 | 2 | 0.59 (active) | 2.73 | no change | caspase activation
KRTAP27-1 | 3 | 0.47 | 2.36 | no change | no change
KRTAP27-1 | 4 | 0.68 (active) | 2.85 | no change | caspase activation
FANCA | 1 | 0.47 (active) | 3.85 | reduced viability | caspase activation
FANCA | 2 | 0.41 (active) | 5.49 | reduced viability | caspase activation
FANCA | 3 | 0.73 (active) | 3.09 | no change | caspase activation
FANCA | 4 | 0.79 (active) | 3.79 | no change | caspase activation
FANCA | 5 | 0.68 (active) | 3.4 | no change | caspase activation
PLVAP | 1 | 0.75 (active) | 3.61 | no change | caspase activation
PLVAP | 2 | 0.4 (active) | 2.41 | reduced viability | no change
PLVAP | 3 | 0.86 | 1.21 | no change | no change
PLVAP | 4 | 0.94 | 0.99 | no change | no change
OR7E85BP | 1 | 0.72 | 0.57 | no change | no change
OR7E85BP | 2 | 0.22 (active) | 4.34 | reduced viability | caspase activation
OR7E85BP | 3 | 0.52 (active) | 1.94 | reduced viability | no change
MED26 | 1 | 0.32 (active) | 3.41 | reduced viability | caspase activation
MED26 | 2 | 0.3 (active) | 4.34 | reduced viability | caspase activation
MED26 | 3 | 0.6 | 2.53 | no change | no change
MED26 | 4 | 0.52 (active) | 5.06 | reduced viability | caspase activation

Targets listed so far whose gene name starts with P or p (4):
gene knocked down | reagent no. | viability relative to mock | caspase activity relative to mock | viability hit class | caspase hit class
PLVAP | 1 | 0.75 (active) | 3.61 | no change | caspase activation
PLVAP | 2 | 0.4 (active) | 2.41 | reduced viability | no change
PLVAP | 3 | 0.86 | 1.21 | no change | no change
PLVAP | 4 | 0.94 | 0.99 | no change | no change

More reagents follow.
gene knocked down | reagent no. | viability relative to mock | caspase activity relative to mock | viability hit class | caspase hit class
CSDC2 | 1 | 0.97 | 1.93 | no change | no change
CSDC2 | 2 | 0.52 (active) | 4.82 | reduced viability | caspase activation
CSDC2 | 3 | 0.74 | 1.04 | no change | no change
CSDC2 | 4 | 0.52 (active) | 2.22 | reduced viability | no change
IFNA16 | 1 | 0.9 | 0.83 | no change | no change
IFNA16 | 2 | 0.73 | 1.36 | no change | no change
IFNA16 | 3 | 0.12 (active) | 4.08 | reduced viability | caspase activation
IFNA16 | 4 | 0.31 (active) | 4.25 | reduced viability | caspase activation
PCP4 | 1 | 0.76 | 0.68 | no change | no change
PCP4 | 2 | 0.12 (active) | 3.13 | reduced viability | caspase activation
PCP4 | 3 | 0.26 (active) | 3.67 | reduced viability | caspase activation
PCP4 | 4 | 0.61 (active) | 4.62 | no change | caspase activation
NUP42 | 1 | 0.74 (active) | 2.64 | no change | caspase activation
NUP42 | 2 | 0.81 | 1.7 | no change | no change
NUP42 | 3 | 0.74 | 1.94 | no change | no change
NUP42 | 4 | 1 | 1.25 | no change | no change
ZNF830 | 1 | 0.86 | 1.92 | no change | no change
ZNF830 | 2 | 0.5 (active) | 5.56 | reduced viability | caspase activation
ZNF830 | 3 | 0.52 (active) | 4.49 | reduced viability | caspase activation
ZNF830 | 4 | 0.84 | 0.92 | no change | no change
